Measurements: patent CN115819579A
No constants are given. Whether binding was seen depends on the method and setting. Some results given as binding are weak or reduced against the parent protein; the word gives no strength.

Molecular target: T1, IL-17A重组蛋白 (UniProt Q16552)
T1 sequence (looked up): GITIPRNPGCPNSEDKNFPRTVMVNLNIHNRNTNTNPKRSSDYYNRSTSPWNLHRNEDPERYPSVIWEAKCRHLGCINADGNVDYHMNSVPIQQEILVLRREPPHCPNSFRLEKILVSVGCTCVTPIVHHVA
Experiment: ELISA, IL-17A coated at 1 μg/ml, scFv at 0.1 μg/ml, anti-His detection, OD450

B1: 全人源抗IL-17A单链抗体No.34 (scFv)
scFv: MQVQLVQSGAEVKPPGASVKVSCKASGYTFTTHKIQWVRQAPGQRLEWMGWINTDKGDTKYSQKFQGRVTITSDTSASTAFMDLSSLRSEDTAVYYCARDGEGYAPFGMDVWGQGTTVTVSSGGGGSGGGGSGGGGSDIRLTQSPPSLSASVGDRVTITCRASQTIGSHLNWYQQKPGKAPKLLIYAASSLQSGVPSRFSGSGSGTDFTLTISSLQPEDFATYYCQQSHSGLTFGGGTKVDIK
- binding: binds
